The results in this text go back to PubChem BioAssay AID493014 (National Center for Advancing Translational Sciences (NCATS), 2011).

Some of the results follow. Further columns of the screen follow, without active or inactive calls. The list favours compounds with an active or inconclusive main result. Words in brackets tell the shape of the fitted curve; partial curves, single points and poor fits give uncertain potencies.

This experiment is described as follows: qHTS Assay to Find Inhibitors of Chronic Active B-Cell Receptor Signaling. To be noted: ABC-DLBCL IkBa-CBG/CBR reporter, luminescence ratio (green luciferase fused to IkBa over red control in TMD8 lymphoma cells), 4 h. Summed up: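 Compounds up to 46 uM were incubated four hours with TMD8 cells whose green CBG68 luciferase is fused to IkappaBalpha; red CBR luminescence normalised the signal, and concentration-effect curves were fitted to fusion, red and ratio data.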

[1] abbreviates: measured here: CBR red luminescence, cell number.
Where [2] appears, read: measured here: IkBa-CBG green luminescence.

Take `O=C(CSCc1ccc(Cl)cc1)N1CCN(Cc2ccc3c(c2)OCO3)CC1`: under setting [1], the AC50 was 29.1 µM [falling, single point]. As to `COc1ccc(-c2c/c(=N\c3nc(-c4ccccc4)c(C)s3)c3ccccc3o2)cc1O`, the AC50 by setting is: under setting [1], 18.4 µM [rising, partial curve]; under setting [2], 6.51 µM [falling, full curve].

As for `CCN(C(=O)COc1cccc(-n2cnnn2)c1)C1CCS(=O)(=O)C1` (stereo not given), the AC50 under setting [1] was 11.6 µM [falling, partial curve, poor fit]. On the same count and under the same terms, under `Cc1ccc2nc(NC(=O)CCn3cccc3)sc2c1` stands 11.2 µM [falling, partial curve]. Consider `N#CCC(CNc1ncc(C(F)(F)F)cc1Cl)OC(=O)c1ccc(Cl)cc1` (stereo not given), for which the AC50 under setting [1] is 6.31 µM [falling, partial curve, poor fit]. The same measure, in the same setting: the value for `COc1cc(NC(=O)Cn2nnc(-c3ccncc3)n2)cc(OC)c1` was 10 µM [rising, partial curve, poor fit]; that for `CC(=O)/C(N)=N/Nc1cccc(Cl)c1` was 1.46 µM [rising, full curve, poor fit].

Consider `O=C(/C=C/c1ccc(F)cc1)N1CCc2ccccc2C1`, for which the AC50 under setting [1] was 13 µM [falling, partial curve]. Regarding `C=CCn1c(SCC(=O)NC2CCCC2)nc2scc(-c3ccco3)c2c1=O`, the AC50 is, setting by setting: under setting [1], 11.6 µM [falling, single point]; under setting [2], 16.4 µM [rising, partial curve, poor fit].

Take `Cc1onc(-c2ccccc2)c1C(=O)NC(=S)NNC(=O)c1cc(-c2ccc(F)cc2)n[nH]1`: under setting [1], the AC50 was 7.94 µM [falling, partial curve, poor fit].

For the compound `CN1CCN(C=Nc2nc3ccccc3nc2N2CCCC2)CC1`, the concentration at half-maximal activity (AC50) under setting [1] was 35.5 µM [falling, single point]. For `CC1=C(C(=O)Nc2ccccc2)C2(CCCCC2)C(C#N)=C(SCC(N)=O)N1`, the AC50 under setting [1] was 13 µM [falling, single point]. Turning to `CN(C)Cc1nc2ccccc2c(=O)n1Cc1nc(-c2cc3ccccc3o2)cs1`, the AC50 under setting [1] was 35.5 µM [falling, single point]. Still for that read-out and setting: the value for `CC1(C2(O)CCCCC2)NCCc2ccccc21` (stereo not given) was 29.1 µM [falling, single point]. On the same count and under the same terms, the value for `CCc1cccc(Nc2c3c(nc4ncnn24)CCC3)c1` was 3.98 µM [rising, partial curve, poor fit]; that for `CCCCn1c2nc3ccccc3nc2c2c(=N)oc(C)nc21` was 35.5 µM [falling, single point]; that for `CCn1c(SCC(=O)Nc2nc3ccc(OC)cc3s2)nnc1-c1ccoc1C` was 17.8 µM [falling, single point]. The same measure, in the same setting: under `Cc1nn(-c2ccccn2)c2c1C(c1ccccn1)C1=C(CCCC1=O)N2` (stereo not given) stands 29.1 µM [falling, single point]; under `CCOC(=O)c1ccccc1NC(=O)c1cn(CC)c2nc(C)ccc2c1=O`, 22.4 µM [falling, single point]; under `CCCCN1C(=O)C(NC(C)=O)c2cc(Br)ccc21` (stereo not given), 0.58 µM [falling, partial curve, poor fit].

Take `CC(C)c1cc(C(=O)N/N=C/c2ccco2)n[nH]1`: the AC50 under setting [1] is 11.6 µM [falling, partial curve].

For the compound `CCc1ccc(S(=O)(=O)NCCOc2cccc3cccnc23)cc1`, the AC50 under setting [1] is 35.5 µM [falling, partial curve, poor fit].

As for `C=CCn1c(C)cc(C(=O)COC(=O)/C=C/c2cccc(OC)c2)c1C`, under setting [1], the AC50 was 4.47 µM [rising, partial curve]. Same read-out and setting: the value for `CC(=O)c1cc(Cc2csc(C(C)=O)c2)cs1` was 15.8 µM [rising, partial curve]; that for `O=C(O)/C=C/c1ccc(S(=O)(=O)N2CCN(CCN3C(=O)C4C5C=CC(C5)C4C3=O)CC2)cc1` (stereo not given) was 5.62 µM [rising, single point]. The same measure, in the same setting: the value for `O=C(Nc1nc(-c2ccccc2)ns1)c1ccncc1` was 1.58 µM [falling, full curve]. Still for that read-out and setting: the value for `Clc1ccc(-c2nnc(CCc3ccccc3)o2)c(Cl)c1` was 3.98 µM [rising, full curve]. Regarding `COC(=O)CCCC(=O)N1CCOCCN(C(=O)CCCC(=O)OC)CCOCC1`, under setting [1], the AC50 is 3.98 µM [rising, single point].

Regarding `Brc1ccc(-c2csc(NNC3=NCCCCC3)n2)cc1`, under setting [1], the AC50 was 6.31 µM [rising, single point].

Take `Cc1cs/c(=N\N=C\c2ccc(O)cc2)n1Cc1ccco1`: the AC50 under setting [1] is 29.1 µM [falling, single point]. Still for that read-out and setting: the value for `Cc1ccccc1NC(=O)Cc1nc(COC(=O)c2cc([N+](=O)[O-])ccc2NCCO)cs1` was 18.4 µM [falling, single point].

Consider `O=C(NCc1cccnc1)c1ccc(-c2cccc(Cl)c2Cl)o1`, for which, under setting [1], the AC50 is 25.1 µM [falling, single point]. Still for that read-out and setting: under `Cc1ccc(C)c(OCCn2cc(/C=C(\C#N)C(=O)NCc3cccs3)c3ccccc32)c1` stands 0.82 µM [rising, full curve, poor fit].

For the compound `CCOC(=O)c1c(N)sc2c(OCC)c(Br)ccc12`, the AC50 under setting [1] was 29.1 µM [rising, single point]. `Cn1c(=O)n(Cc2ccccc2Br)c2ccccc21`: the AC50 runs as follows: under setting [1], 17.8 µM [rising, partial curve, poor fit]; under setting [2], 12.6 µM [falling, partial curve].

In the case of `O=C(N/N=C/c1ccc(N2CCCC2)c([N+](=O)[O-])c1)c1cccnc1`, the AC50 under setting [1] is 17.8 µM [falling, partial curve]. Same read-out and setting: the value for `COc1cccc(COc2ccc3c(C)cc(=O)oc3c2)c1` was 35.5 µM [rising, single point]; that for `CC(OC(=O)c1ccc(O)cc1)C(=O)Nc1ccc(Oc2ccccc2)cc1` (stereo not given) was 14.6 µM [falling, partial curve, poor fit]. For `CCOc1cc(/C=N/O)ccc1OCc1ccc(C)cc1`, the AC50 is 9.2 µM [rising, partial curve] under setting [1] and 9.2 µM [falling, partial curve, poor fit] under setting [2]. Take `COc1ccc(Cc2nnc(SC)[nH]c2=O)cc1`: under setting [1], the AC50 is 29.1 µM [falling, single point].

For `Cc1cccc2c1-c1sc(C(=O)Nc3ccccc3N3CCN(C)CC3)cc1CO2`, under setting [1], the AC50 was 10 µM [falling, partial curve, poor fit].
